Measured values published in doi:10.1101/2025.09.29.679403.

Amino acid sequences for entries named in this document (tags omitted).
UniProt Q13148: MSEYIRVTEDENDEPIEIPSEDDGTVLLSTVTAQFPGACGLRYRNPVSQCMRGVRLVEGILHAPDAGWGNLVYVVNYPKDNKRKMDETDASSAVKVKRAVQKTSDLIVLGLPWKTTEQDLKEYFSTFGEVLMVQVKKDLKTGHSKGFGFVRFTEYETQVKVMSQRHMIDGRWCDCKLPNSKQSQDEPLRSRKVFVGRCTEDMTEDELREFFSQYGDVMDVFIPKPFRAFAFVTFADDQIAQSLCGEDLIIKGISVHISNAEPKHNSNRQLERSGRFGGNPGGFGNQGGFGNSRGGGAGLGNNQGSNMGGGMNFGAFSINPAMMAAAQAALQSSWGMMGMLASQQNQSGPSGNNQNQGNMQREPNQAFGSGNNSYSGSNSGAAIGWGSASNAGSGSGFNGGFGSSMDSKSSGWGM

Biological target: TAR DNA-binding protein-43 (TDP-43), endogenously tagged with eGFP (human (endogenous in BJFF.6 iPSC-derived neurons)) (UniProt Q13148)
Assay: affinity purification with mass spectrometry

- binding: binds
B1: MATR3 (protein, UniProt P43243 1-847)
chain: MSKSFQQSSLSRDSQGHGRDLSAAGIGLLAAATQSLSMPASLGRMNQGTARLASLMNLGMSSSLNQQGAHSALSSASTSSHNLQSIFNIGSRGPLPLSSQHRGDADQASNILASFGLSARDLDELSRYPEDKITPENLPQILLQLKRRRTEEGPTLSYGRDGRSATREPPYRVPRDDWEEKRHFRRDSFDDRGPSLNPVLDYDHGSRSQESGYYDRMDYEDDRLRDGERCRDDSFFGETSHNYHKFDSEYERMGRGPGPLQERSLFEKKRGAPPSSNIEDFHGLLPKGYPHLCSICDLPVHSNKEWSQHINGASHSRRCQLLLEIYPEWNPDNDTGHTMGDPFMLQQSTNPAPGILGPPPPSFHLGGPAVGPRGNLGAGNGNLQGPRHMQKGRVETSRVVHIMDFQRGKNLRYQLLQLVEPFGVISNHLILNKINEAFIEMATTEDAQAAVDYYTTTPALVFGKPVRVHLSQKYKRIKKPEGKPDQKFDQKQELGRVIHLSNLPHSGYSDSAVLKLAEPYGKIKNYILMRMKSQAFIEMETREDAMAMVDHCLKKALWFQGRCVKVDLSEKYKKLVLRIPNRGIDLLKKDKSRKRSYSPDGKESPSDKKSKTDGSQKTESSTEGKEQEEKSGEDGEKDTKDDQTEQEPNMLLESEDELLVDEEEAAALLESGSSVGDETDLANLGDVASDGKKEPSDKAVKKDGSASAAAKKKLKKVDKIEELDQENEAALENGIKNEENTEPGAESSENADDPNKDTSENADGQSDENKDDYTIPDEYRIGPYQPNVPVGIDYVIPKTGFYCKLCSLFYTNEEVAKNTHCSSLPHYQKLKKFLNKLAEERRQKKET

No constants are given. Whether binding was seen depends on the method and setting. Binding seen in cells or lysates may run through a third protein. Here binding means that the protein was enriched with, or labelled near, the bait; the list need not be complete.
